According to PubChem BioAssay (EPA / NIEHS):
Where “and” joins values, the source holds several entries; their conditions need not be identical. Equal values may be shown once. The inconclusive results got no clear call from the source; some entries with a clear call stand among them for comparison. For some assays here: A potency beside an inconclusive call is a rough fit, not a confirmed value. Calls of active or inactive are those of the source. The calls were made as follows: active = hit-call score of the fitted dose curve at least 0.9, where 1 is the maximum; inconclusive = response in the unintended direction; inactive = score below 0.9.

Protein sequences, listed by entry. Tags and fused reporters are not part of them. Lines headed by an entry give the natural chain unless they say otherwise; changes in a name come on top.
UniProt P08253: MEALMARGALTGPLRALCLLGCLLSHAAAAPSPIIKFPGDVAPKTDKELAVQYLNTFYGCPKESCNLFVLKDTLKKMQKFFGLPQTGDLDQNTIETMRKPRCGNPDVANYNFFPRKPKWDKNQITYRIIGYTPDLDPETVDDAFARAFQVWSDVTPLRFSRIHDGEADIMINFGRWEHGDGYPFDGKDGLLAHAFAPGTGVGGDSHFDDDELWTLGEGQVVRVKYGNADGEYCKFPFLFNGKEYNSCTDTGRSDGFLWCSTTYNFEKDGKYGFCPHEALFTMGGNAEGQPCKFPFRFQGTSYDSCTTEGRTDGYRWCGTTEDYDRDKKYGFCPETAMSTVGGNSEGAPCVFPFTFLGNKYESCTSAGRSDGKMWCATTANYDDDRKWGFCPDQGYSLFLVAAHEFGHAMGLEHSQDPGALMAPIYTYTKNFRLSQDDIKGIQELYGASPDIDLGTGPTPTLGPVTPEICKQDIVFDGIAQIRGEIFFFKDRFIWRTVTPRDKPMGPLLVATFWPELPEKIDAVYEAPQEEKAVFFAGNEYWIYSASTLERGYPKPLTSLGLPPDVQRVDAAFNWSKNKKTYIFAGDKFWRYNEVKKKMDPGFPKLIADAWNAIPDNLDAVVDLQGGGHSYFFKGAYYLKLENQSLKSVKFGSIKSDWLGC
UniProt P37231: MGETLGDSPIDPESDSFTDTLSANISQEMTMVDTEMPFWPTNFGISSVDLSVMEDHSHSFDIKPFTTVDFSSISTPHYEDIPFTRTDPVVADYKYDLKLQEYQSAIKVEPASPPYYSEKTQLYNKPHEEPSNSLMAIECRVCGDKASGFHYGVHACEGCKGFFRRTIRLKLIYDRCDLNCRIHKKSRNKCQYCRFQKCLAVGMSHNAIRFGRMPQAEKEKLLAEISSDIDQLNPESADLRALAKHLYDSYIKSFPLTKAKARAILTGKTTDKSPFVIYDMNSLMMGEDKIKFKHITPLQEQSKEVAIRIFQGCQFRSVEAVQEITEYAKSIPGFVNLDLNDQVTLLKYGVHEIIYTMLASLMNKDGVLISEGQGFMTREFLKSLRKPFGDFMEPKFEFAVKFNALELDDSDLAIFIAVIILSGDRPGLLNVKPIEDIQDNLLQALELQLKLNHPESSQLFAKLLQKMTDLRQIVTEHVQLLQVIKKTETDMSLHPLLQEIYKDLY
UniProt P10827: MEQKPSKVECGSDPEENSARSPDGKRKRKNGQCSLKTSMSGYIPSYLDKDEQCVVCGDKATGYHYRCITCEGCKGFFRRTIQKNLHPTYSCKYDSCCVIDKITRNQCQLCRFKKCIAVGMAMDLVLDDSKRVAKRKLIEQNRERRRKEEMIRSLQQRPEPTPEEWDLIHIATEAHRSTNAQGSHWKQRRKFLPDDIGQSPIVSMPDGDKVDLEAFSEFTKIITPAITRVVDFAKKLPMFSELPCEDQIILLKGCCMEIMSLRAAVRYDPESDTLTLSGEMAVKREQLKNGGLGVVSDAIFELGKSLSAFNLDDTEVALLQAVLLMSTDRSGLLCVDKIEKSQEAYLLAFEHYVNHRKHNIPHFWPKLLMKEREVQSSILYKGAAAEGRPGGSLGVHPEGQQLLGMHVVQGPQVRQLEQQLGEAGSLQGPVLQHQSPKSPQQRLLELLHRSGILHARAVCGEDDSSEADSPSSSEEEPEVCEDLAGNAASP
UniProt P41144: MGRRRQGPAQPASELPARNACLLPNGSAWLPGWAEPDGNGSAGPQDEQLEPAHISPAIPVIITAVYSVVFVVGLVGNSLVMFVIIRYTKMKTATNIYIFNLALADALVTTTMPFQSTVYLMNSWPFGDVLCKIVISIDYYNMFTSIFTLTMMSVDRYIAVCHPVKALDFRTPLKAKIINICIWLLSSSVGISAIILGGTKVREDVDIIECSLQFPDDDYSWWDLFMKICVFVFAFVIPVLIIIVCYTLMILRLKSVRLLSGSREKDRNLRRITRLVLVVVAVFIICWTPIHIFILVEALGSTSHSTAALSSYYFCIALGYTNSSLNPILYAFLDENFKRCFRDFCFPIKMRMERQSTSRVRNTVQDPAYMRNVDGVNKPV
UniProt P31652, whole entry, looked up: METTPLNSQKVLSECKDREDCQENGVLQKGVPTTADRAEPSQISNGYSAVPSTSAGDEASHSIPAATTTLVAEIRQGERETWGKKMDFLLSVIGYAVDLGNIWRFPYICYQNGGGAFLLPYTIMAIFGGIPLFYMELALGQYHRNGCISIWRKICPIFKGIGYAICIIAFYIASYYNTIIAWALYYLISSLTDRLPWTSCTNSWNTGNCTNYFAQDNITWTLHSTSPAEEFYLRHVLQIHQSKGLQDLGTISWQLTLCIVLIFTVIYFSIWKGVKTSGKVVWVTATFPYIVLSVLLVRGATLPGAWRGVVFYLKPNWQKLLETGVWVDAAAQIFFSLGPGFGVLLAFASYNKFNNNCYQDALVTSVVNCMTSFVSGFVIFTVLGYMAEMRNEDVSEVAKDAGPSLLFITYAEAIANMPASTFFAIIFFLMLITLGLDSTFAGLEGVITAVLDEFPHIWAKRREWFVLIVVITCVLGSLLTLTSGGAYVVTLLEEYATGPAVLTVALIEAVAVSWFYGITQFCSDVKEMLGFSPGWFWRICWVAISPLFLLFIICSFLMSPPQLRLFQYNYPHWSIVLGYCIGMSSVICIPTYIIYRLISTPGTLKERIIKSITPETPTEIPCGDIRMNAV
UniProt P49146, whole entry, looked up: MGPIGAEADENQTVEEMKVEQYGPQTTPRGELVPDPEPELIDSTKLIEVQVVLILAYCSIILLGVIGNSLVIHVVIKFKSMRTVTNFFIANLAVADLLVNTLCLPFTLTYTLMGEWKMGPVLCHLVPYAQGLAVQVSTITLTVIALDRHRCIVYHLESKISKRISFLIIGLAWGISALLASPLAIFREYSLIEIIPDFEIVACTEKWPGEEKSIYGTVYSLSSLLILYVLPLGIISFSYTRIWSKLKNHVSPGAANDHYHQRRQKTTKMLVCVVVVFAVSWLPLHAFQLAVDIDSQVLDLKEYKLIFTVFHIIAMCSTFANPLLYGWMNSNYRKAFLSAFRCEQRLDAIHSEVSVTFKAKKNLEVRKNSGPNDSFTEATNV
UniProt P30560, whole entry, looked up: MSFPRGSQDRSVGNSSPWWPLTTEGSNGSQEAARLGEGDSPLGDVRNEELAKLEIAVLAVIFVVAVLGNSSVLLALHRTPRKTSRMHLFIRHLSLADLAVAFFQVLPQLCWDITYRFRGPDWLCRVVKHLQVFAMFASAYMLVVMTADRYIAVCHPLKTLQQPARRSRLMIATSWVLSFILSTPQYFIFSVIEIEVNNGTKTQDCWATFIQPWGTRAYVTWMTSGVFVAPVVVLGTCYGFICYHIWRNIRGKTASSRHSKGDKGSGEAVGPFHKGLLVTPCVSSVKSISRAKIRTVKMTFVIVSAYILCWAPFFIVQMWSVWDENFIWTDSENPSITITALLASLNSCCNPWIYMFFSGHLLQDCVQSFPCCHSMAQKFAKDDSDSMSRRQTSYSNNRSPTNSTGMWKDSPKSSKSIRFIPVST
UniProt P48730: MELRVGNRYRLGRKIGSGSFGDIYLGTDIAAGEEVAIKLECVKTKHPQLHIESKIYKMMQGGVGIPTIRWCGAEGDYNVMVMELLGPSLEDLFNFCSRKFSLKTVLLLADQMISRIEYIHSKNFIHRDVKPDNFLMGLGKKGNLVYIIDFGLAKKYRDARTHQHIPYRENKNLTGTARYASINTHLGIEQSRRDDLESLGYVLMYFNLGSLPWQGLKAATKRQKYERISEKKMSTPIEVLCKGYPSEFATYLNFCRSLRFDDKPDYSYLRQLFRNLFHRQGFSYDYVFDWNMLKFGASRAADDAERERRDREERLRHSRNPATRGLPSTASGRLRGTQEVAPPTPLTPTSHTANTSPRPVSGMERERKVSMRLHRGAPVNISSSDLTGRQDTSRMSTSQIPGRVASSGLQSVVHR
UniProt O75582, whole entry, looked up: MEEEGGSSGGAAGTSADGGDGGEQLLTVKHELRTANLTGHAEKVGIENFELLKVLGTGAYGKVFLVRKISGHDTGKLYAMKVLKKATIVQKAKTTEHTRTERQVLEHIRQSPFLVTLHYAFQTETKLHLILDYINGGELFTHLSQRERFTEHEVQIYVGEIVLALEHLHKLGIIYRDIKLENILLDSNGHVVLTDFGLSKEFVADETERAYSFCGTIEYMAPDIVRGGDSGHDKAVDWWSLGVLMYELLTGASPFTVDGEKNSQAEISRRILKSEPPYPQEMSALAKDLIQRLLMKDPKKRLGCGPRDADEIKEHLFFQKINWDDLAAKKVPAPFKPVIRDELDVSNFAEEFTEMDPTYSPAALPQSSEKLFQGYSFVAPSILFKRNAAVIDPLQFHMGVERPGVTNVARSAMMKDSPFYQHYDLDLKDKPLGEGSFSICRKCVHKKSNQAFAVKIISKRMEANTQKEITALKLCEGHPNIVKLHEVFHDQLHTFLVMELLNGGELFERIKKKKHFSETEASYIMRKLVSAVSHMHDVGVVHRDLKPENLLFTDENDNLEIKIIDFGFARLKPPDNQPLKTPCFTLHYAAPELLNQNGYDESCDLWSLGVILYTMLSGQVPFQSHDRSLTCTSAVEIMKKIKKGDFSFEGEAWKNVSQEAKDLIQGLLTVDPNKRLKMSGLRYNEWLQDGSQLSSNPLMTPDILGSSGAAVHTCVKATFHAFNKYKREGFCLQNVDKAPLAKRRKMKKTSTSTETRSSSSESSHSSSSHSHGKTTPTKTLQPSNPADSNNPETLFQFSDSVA

Key:
[1] = biological target: human c-Jun N-terminal Kinases (JNK2), MAPK9 (gene 5601) (UniProt P45984); assay: NVS_ENZ_hJNK2: NovaScreen (NVS) Enzymatic Assay for human c-Jun N-terminal Kinases (JNK2) (AID 2283171)
Procedure, shortened: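 Cell-free recombinant human JNK2 activity assay; fluorescent substrate and product separated by electrophoretic mobility shift, read 1 h after dosing. Primary duplicate screen at 25 uM; actives run in concentration-response up to 50 uM, relative to DMSO.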

[2] = biological target: human Matrix Metalloproteinase-2 (MMP2), MMP2 (gene 4313) (UniProt P08253); assay: NVS_ENZ_hMMP2: NovaScreen (NVS) Enzymatic Assay for human Matrix Metalloproteinase-2 (MMP2) (AID 2283184)
Procedure, shortened: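 Cell-free recombinant MMP2 activity with a fluorescent substrate, read 1 h after dosing. Primary screen in duplicate at 25 uM; actives then run in concentration series; loss of signal fitted versus DMSO.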

[3] = Tanguay_ZF_120hpf_TR_legacy: (Legacy) Oregon State University Tanguay Lab 120 Hour Post-fertilization zebrafish Assay for Touch Response (AID 2283667)
Procedure, shortened: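 Tropical 5D wild-type zebrafish embryos statically exposed to 120 hpf at 28°C, sealed and dark-covered, 0.64% DMSO final; touch response scored as present/absent by brightfield microscopy at 120 hpf. Trimethyltin chloride 5 uM positive control; dead embryos not scored.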

[4] = ATG_M_06_XSP1: Attagene TRANS-FACTORIAL Multi-Species (XSP1) HepG2 Assay for M06 Transcription Factor (Internal Marker) (AID 2283790)
Procedure, shortened: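 Transfected HepG2 multi-reporter system treated 24 h in the presence of 3 nM 6-alpha-fluorotestosterone. The M06 internal marker transcript was quantified by RT-PCR with capillary electrophoresis as a background control, and gain of signal was scored versus DMSO.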

[5] = ATG_M_61_XSP1: Attagene TRANS-FACTORIAL Multi-Species (XSP1) HepG2 Assay for M61 Transcription Factor (Internal Marker) (AID 2283797)
Procedure, shortened: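 HepG2 cells transiently transfected with multiplexed GAL4-driven reporter units, dosed 24 h with 3 nM 6-alpha-fluorotestosterone present. Reporter mRNA quantified by RT-PCR, 6-FAM labelling, HpaI digestion and capillary electrophoresis; internal-marker background control, gain of signal versus DMSO.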

[6] = ATG_XTT_Cytotoxicity_XSP1: Cytotoxicity Assessment in the Attagene TRANS-FACTORIAL Multi-Species (XSP1) HepG2 Assay (AID 2283810)
Procedure, shortened: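 XTT viability readout taken at 24 hours post-dosing in HepG2 liver cells co-treated with 3 nM 6-alpha-fluorotestosterone. Signal loss relative to DMSO controls reflects cytotoxicity.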

[7] = biological target: Peroxisome proliferator-activated receptor gamma (Homo sapiens) (UniProt P37231); assay: ATG_hPPARg_XSP1: Attagene TRANS-FACTORIAL Multi-Species (XSP1) HepG2 Assay for human Peroxisome Proliferator-activated Receptor gamma (PPARg) (AID 2283800)
Procedure, shortened: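 HepG2 cells transiently transfected with GAL4-UAS reporter units carrying chimeric NR-Gal4 proteins; 3 nM 6-alpha-fluorotestosterone present. After 24 h dosing, reporter mRNA quantified by RT-PCR and capillary electrophoresis; gain of signal relative to DMSO.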

[8] = biological target: human Thyroid hormone Receptor alpha (TRa), THRA (gene 7067) (UniProt P10827); assay: ATG_hTRa_XSP2: Attagene TRANS-FACTORIAL Multi-Species (XSP2) HepG2 Assay for human Thyroid hormone Receptor alpha (TRa) (AID 2283838)
Procedure, shortened: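 HepG2 cells were transiently transfected with GAL4-UAS reporter units for chimeric human TRa-Gal4 and dosed for 24 hours, with 3 nM 6-alpha-fluorotestosterone and 1.5 nM norgestrel present. Reporter mRNA was quantified by RT-PCR, FAM labelling and capillary electrophoresis, with gain of signal fitted versus DMSO.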

[9] = biological target: guinea pig Opioid, Kappa 1 Receptor (OpiateK), OPRK1 (gene 100135587) (UniProt P41144); assay: NVS_GPCR_gOpiateK: NovaScreen (NVS) G Protein-Coupled Receptor Assay for guinea pig Opioid, Kappa 1 Receptor (OpiateK) (AID 2283252);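 also: radioligand displacement from kappa opioid receptor in guinea pig cerebellar membranes; active means reduced radioligand binding relative to DMSO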
Procedure, shortened: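 Guinea pig cerebellar membranes, radioligand displacement with filter-based scintillation counting, 2 h after dosing. Primary screen single concentration 25 uM in duplicate; actives retested in concentration series; loss of binding fitted versus DMSO.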

[10] = biological target: rat Serotonin Transporter (SERT), Slc6a4 (gene 25553) (UniProt P31652); assay: NVS_TR_rSERT: NovaScreen (NVS) Transporter Assay for rat Serotonin Transporter (SERT) (AID 2283375)
Procedure, shortened: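 Rat forebrain membranes were incubated with test chemical for 1 hour; radioligand binding to SERT was measured by filter-based scintillation counting. Primary screen ran in duplicate at 25 uM, with actives followed up in concentration series; DMSO served as negative control.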

[11] = biological target: Neuropeptide Y receptor type 2 (Homo sapiens) (UniProt P49146); assay: NVS_GPCR_hNPY2: NovaScreen (NVS) G Protein-Coupled Receptor Assay for human Neuropeptide Receptor Y2 (NPY2) (AID 2283277)
Procedure, shortened: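 Radioligand binding on membranes extracted from SK-N-MC cells, cell-free, read 1 h after dosing by filter-based scintillation counting. Loss of signal vs DMSO. Primary screen in duplicate at 25 uM; actives followed up in concentration-response up to 50 uM.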

[12] = biological target: rat Vasopressin 1 Receptor (V1), Avpr1a (gene 25107) (UniProt P30560); assay: NVS_GPCR_rV1: NovaScreen (NVS) G Protein-Coupled Receptor Assay for rat Vasopressin 1 Receptor (V1) (AID 2283316)
Procedure, shortened: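 Radioligand binding on rat liver membranes, 1.5 h incubation, filter-based scintillation counting. Single 25 uM screen in duplicate; chemicals meeting threshold (e.g. 30% inhibition) run in concentration-response up to 50 uM.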

[13] = biological target: rat Glutamate, MK-801 Agonist Site (GluNMDA_MK801), Grin1 (gene 24408) (UniProt P35439); assay: NVS_LGIC_rGluNMDA_MK801_Agonist: NovaScreen (NVS) Ligand-Gated Ion Channel Assay for rat Glutamate, MK-801 Agonist Site (GluNMDA_MK801) (AID 2283340)
Procedure, shortened: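 Radioligand binding at MK-801 site in rat forebrain membranes, 1.5 h incubation, filter-based scintillation counting. Initially 25 uM in duplicate; actives then run in concentration-response up to 50 uM, fitted for gain of signal versus DMSO.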

[14] = biological target: human Casein Kinase 1-delta (CK1D), CSNK1D (gene 1453) (UniProt P48730); assay: NVS_ENZ_hCK1D: NovaScreen (NVS) Enzymatic Assay for human Casein Kinase 1-delta (CK1D) (AID 2283148)
Procedure, shortened: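 Recombinant human CK1-delta, cell-free; fluorescent substrate with electrophoretic mobility-shift separation of product, read 1 h after dosing. Single 25 uM duplicate screen, then concentration-response up to 50 uM; loss of signal vs DMSO.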

[15] = biological target: human Mitogen- and Stress-activated Protein Kinase-1 (Msk1), RPS6KA5 (gene 9252) (UniProt O75582); assay: NVS_ENZ_hMsk1: NovaScreen (NVS) Enzymatic Assay for human Mitogen- and Stress-activated Protein Kinase-1 (Msk1) (AID 2283187)
Procedure, shortened: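 Recombinant kinase with fluorescent substrate; product separated by electrophoretic mobility shift, read 1 h after dosing. Screened in duplicate at 25 uM; hits (e.g. ≥30% inhibition) tested in concentration–response up to 50 uM. DMSO baseline.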

[16] = biological target: Tyrosine-protein phosphatase non-receptor type 11 (Homo sapiens) (UniProt Q06124); assay: NVS_ENZ_hPTPN11: NovaScreen (NVS) Enzymatic Assay for human Protein Tyrosine Phosphatase Non-receptor Type 11 (PTPN11) (AID 2283202)
Procedure, shortened: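 Recombinant human PTPN11 activity on a fluorescent substrate, with substrate/product separated by electrophoretic mobility shift; read 0.5 h after dosing, loss of signal vs DMSO. Duplicate 25 uM screen, then concentration-response up to 50 uM.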

[17] = Tanguay_ZF_120hpf_SWIM_legacy: (Legacy) Oregon State University Tanguay Lab 120 Hour Post-fertilization zebrafish Assay for Swim Bladder Malformation (AID 2283654);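 also: swim bladder malformation in each larva scored yes or no under brightfield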
Procedure, shortened: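 Dechorionated wild-type Tropical 5D zebrafish embryos, one per well from 6 hpf, were statically exposed at 28C until 120 hpf in 0.64% DMSO. Swim bladder malformation scored as present/absent by brightfield microscopy; not scored in dead larvae.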

[18] = tested on: zebrafish Estrogen Receptor (ESR2A), gene 317734; assay: ATG_zfER2a_XSP1: Attagene TRANS-FACTORIAL Multi-Species (XSP1) HepG2 Assay for zebrafish Estrogen Receptor (ESR2A) (AID 2283778)
Procedure, shortened: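 HepG2 cells transiently transfected with GAL4-UAS reporter units driven by a zebrafish ESR2A–Gal4 chimera; 24 h compound exposure with 3 nM 6-alpha-fluorotestosterone present. Reporter mRNA measured by RT-PCR with fluorescent capillary electrophoresis, fitted positive versus DMSO.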

[19] = tested on: turtle Estrogen Receptor (ESR1), gene 101933533; assay: ATG_trERa_XSP1: Attagene TRANS-FACTORIAL Multi-Species (XSP1) HepG2 Assay for turtle Estrogen Receptor (ESR1) (AID 2283781)
Procedure, shortened: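 Turtle ERa as a GAL4 chimera in transiently transfected HepG2 cells; reporter mRNA quantified 24 h after dosing by RT-PCR and capillary electrophoresis. 3 nM 6-alpha-fluorotestosterone present; gain of signal versus DMSO.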

For `CC/C(=C(/CC)c1ccc(O)cc1)c1ccc(O)cc1`, the AC50 [1] was inconclusive: 5730 nM, the outcome [2] was “inactive” and the AC50 [3] was inconclusive: 10100 nM. For the same molecule, the outcome [4] was “inactive”, the outcome [5] was “inactive” and the outcome [6] was “inactive”.
With `C[C@]12CC[C@@H]3c4ccc(O)cc4CC[C@H]3[C@@H]1C[C@@H](O)[C@@H]2O` the outcome [4] was “inactive”, the outcome [7] was “inactive” and the AC50 [8] was inconclusive: 100 nM.
For `O=C(O)CC(O)C(=O)O` (stereo not drawn), the outcome [9] was “inactive” and the AC50 [10] was inconclusive: 91.7 nM.
In the case of `S=C(S)NCCNC(=S)S.[Mn+2].[S-]C([S-])=NCCN=C([S-])[S-].[Zn+2]`, the AC50 [11] was inconclusive: 45100 nM, the outcome [12] was “inactive” and the AC50 [13] was active: 17.3 µM and active: 25 µM.
With `CC(N)=O` the outcome [14] was “inactive”.
In the case of `O=C(O)c1cc(N=Nc2ccc(S(=O)(=O)Nc3ccccn3)cc2)ccc1O`, the outcome [1] was “inactive”, the AC50 [15] was inconclusive: 25000 nM and the AC50 [3] was inconclusive: 39600 nM.
With `S=C([S-])NCCNC(=S)[S-].[Mn+2]` the AC50 [16] was active: 144 nM and the outcome [17] was “inactive”.
For `C[C@]12CC[C@@H]3c4ccc(O)cc4CC[C@H]3[C@@H]1CCC2=O`, the AC50 [18] was active: 3.83 nM, the AC50 [19] was active: 3.09 nM and the outcome [5] was “inactive”.
